# From the supplement of paper PMC4604168 (melanoma cell lines)
# The list shows a part of the results. Repeats are few or missing, and single values can be far off.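 Imaging used 1,536-well plates; nuclei positive for cleaved PARP by antibody were divided by total DNA-stained nuclei to yield the apoptosis fraction. Doses for screening kept most cells viable, and cell lines differ markedly in resting and induced cleaved-PARP levels.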
# What was measured:
# Experiment in all cases: cleaved PARP positive nuclei fraction relative to DMSO control; melanoma cells; higher = more apoptosis
# Conditions in all cases: library dose: low library concentration; 72 h
# [1] = test system: COLO792
# [2] = test system: COLO800
# [3] = test system: COLO829
# [4] = test system: G361
# [5] = test system: IPC-298
# [6] = test system: IST-MEL1
# [7] = test system: LB2518-MEL
# [8] = test system: LOXIMVI
# [9] = test system: MEL-HO
SMILES,cleaved PARP positive nuclei fraction [1] [%],cleaved PARP positive nuclei fraction [2] [%],cleaved PARP positive nuclei fraction [3] [%],cleaved PARP positive nuclei fraction [4] [%],cleaved PARP positive nuclei fraction [5] [%],cleaved PARP positive nuclei fraction [6] [%],cleaved PARP positive nuclei fraction [7] [%],cleaved PARP positive nuclei fraction [8] [%],cleaved PARP positive nuclei fraction [9] [%]
"Cn1cnc2c(F)c(Nc3ccc(Br)cc3Cl)c(C(=O)NOCCO)cc21 [selumetinib] + CN(NC(=O)CC(=O)NN(C)C(=S)c1ccccc1)C(=S)c1ccccc1 [STA4783] (first compound 0.015 µM, partner dose 0.006 µM)",217,141,269,216,199,279,553,43,156
"CN(c1ncccc1CNc1nc(Nc2ccc3c(c2)CC(=O)N3)ncc1C(F)(F)F)S(C)(=O)=O + CC1(C)NC(=O)N(c2ccc([N+](=O)[O-])c(C(F)(F)F)c2)C1=O [nilutamide] (first compound 0.08 µM, partner dose 1 µM)",79.9,49.6,94.4,129,61.7,61.8,95.1,104,30.1
"C[C@@H](N)c1ccc(C(=O)Nc2ccnc3[nH]ccc23)cc1 + NCC(=O)Nc1ccc(-n2nc(C(F)(F)F)cc2-c2ccc3c(ccc4ccccc43)c2)cc1 [OSU03012] (first compound 0.4 µM, partner dose 1 µM)",224,126,110,123,115,62.6,108,204,55.5
"NC(=O)c1ccc(N(C(N)=O)c2c(F)cccc2F)nc1-c1ccc(F)cc1F + C=CCn1c(=O)c2cnc(Nc3ccc(N4CCN(C)CC4)cc3)nc2n1-c1cccc(C(C)(C)O)n1 [MK1775] (first compound 0.4 µM, partner dose 0.02 µM)",48.9,107,107,93.9,48.5,162,112,49.2,66.9
"CC(=O)O[C@@]12CO[C@@H]1C[C@H](O)[C@@]1(C)C(=O)[C@H](O)C3=C(C)[C@@H](OC(=O)[C@H](O)[C@@H](NC(=O)OC(C)(C)C)c4ccccc4)C[C@@](O)([C@@H](OC(=O)c4ccccc4)[C@H]21)C3(C)C [Docetaxel] + CN(NC(=O)CC(=O)NN(C)C(=S)c1ccccc1)C(=S)c1ccccc1 [STA4783] (first compound 0.0001 µM, partner dose 0.006 µM)",795,365,369,484,33,159,177,1120,62
"NC(=O)c1ccc(N(C(N)=O)c2c(F)cccc2F)nc1-c1ccc(F)cc1F + NC(=O)Nc1cc(-c2cccc(F)c2)sc1C(=O)N[C@H]1CCCNC1 [AZD7762] (first compound 0.4 µM, partner dose 0.02 µM)",103,12.3,32,93.5,45.7,286,125,46.5,90.7
"CC(=O)O[C@@]12CO[C@@H]1C[C@H](O)[C@@]1(C)C(=O)[C@H](O)C3=C(C)[C@@H](OC(=O)[C@H](O)[C@@H](NC(=O)OC(C)(C)C)c4ccccc4)C[C@@](O)([C@@H](OC(=O)c4ccccc4)[C@H]21)C3(C)C [Docetaxel] + O=C(Nc1cccc(Cl)c1)Nc1ncc(CCNc2ncnc3ccsc23)s1 [SNS314] (first compound 0.0001 µM, partner dose 0.0008 µM)",178,354,223,257,540,101,81.3,86.1,108
"CC1(C)CCC(c2ccc(Cl)cc2)=C(CN2CCN(c3ccc(C(=O)NS(=O)(=O)c4ccc(N[C@H](CCN5CCOCC5)CSc5ccccc5)c(S(=O)(=O)C(F)(F)F)c4)cc3)CC2)C1 + OCCn1cc(-c2cnc3nnn(Cc4ccc5ncccc5c4)c3n2)cn1 [PF04217903] (first compound 0.4 µM, partner dose 1 µM)",294,370,72.8,196,46.2,40.6,69.2,178,113
"CC(=O)O[C@@]12CO[C@@H]1C[C@H](O)[C@@]1(C)C(=O)[C@H](O)C3=C(C)[C@@H](OC(=O)[C@H](O)[C@@H](NC(=O)OC(C)(C)C)c4ccccc4)C[C@@](O)([C@@H](OC(=O)c4ccccc4)[C@H]21)C3(C)C [Docetaxel] + COc1cc2c(Oc3ccc4[nH]c(C)cc4c3F)ncnc2cc1OCCCN1CCCC1 [cediranib] (first compound 0.0001 µM, partner dose 0.4 µM)",735,128,175,805,31.9,133,301,253,112
"CC(=O)O[C@@]12CO[C@@H]1C[C@H](O)[C@@]1(C)C(=O)[C@H](O)C3=C(C)[C@@H](OC(=O)[C@H](O)[C@@H](NC(=O)OC(C)(C)C)c4ccccc4)C[C@@](O)([C@@H](OC(=O)c4ccccc4)[C@H]21)C3(C)C [Docetaxel] + Cc1cc([N+](=O)[O-])ccc1NS(=O)(=O)c1cc(Cl)ccc1Cl [FH535] (first compound 0.0001 µM, partner dose 1 µM)",258,316,143,307,267,89.3,,167,
"CCN(CC)CCNC(=O)c1c(C)[nH]c(/C=C2\C(=O)Nc3ccc(F)cc32)c1C [sunitinib] + O=C(Nc1ccccc1)c1cc([N+](=O)[O-])ccc1Cl [GW9662] (first compound 0.4 µM, partner dose 2 µM)",138,163,76.3,66.6,88.4,141,,87.9,
"CCCCCCCCc1ccc(CCC(N)(CO)CO)cc1 [fingolimod] + COc1ccc(COc2ccc(Cc3cnc(N)nc3N)cc2OC)cc1 [GW2580] (first compound 2 µM, partner dose 1 µM)",102,135,62,81.6,52.5,178,,50.1,
"CCN(CC)CCNC(=O)c1c(C)[nH]c(/C=C2\C(=O)Nc3ccc(F)cc32)c1C [sunitinib] + O=C(O)C(=O)Nc1sc2c(c1C(=O)O)CCNC2 [TCS401] (first compound 0.4 µM, partner dose 1.66667 µM)",99.6,183,56.3,127,48.1,61.3,,171,
"CN(c1ncccc1CNc1nc(Nc2ccc3c(c2)CC(=O)N3)ncc1C(F)(F)F)S(C)(=O)=O + COc1cc2c(Oc3ccc4[nH]c(C)cc4c3F)ncnc2cc1OCCCN1CCCC1 [cediranib] (first compound 0.08 µM, partner dose 0.4 µM)",173,57.5,131,131,46,73.5,,56.1,55.7
"C[C@]1(O)C[C@@H](c2nc(-c3ccc4ccc(-c5ccccc5)nc4c3)c3c(N)nccn32)C1 + C[C@@H]1CCN(C(=O)CC#N)C[C@@H]1N(C)c1ncnc2[nH]ccc12 [CP690550] (first compound 0.4 µM, partner dose 1 µM)",132,167,63,91.2,139,94.1,,153,126
"COc1ccc(C2=N[C@@H](c3ccc(Cl)cc3)[C@@H](c3ccc(Cl)cc3)N2C(=O)N2CCNC(=O)C2)c(OC(C)C)c1 [Nutlin-3] + CCCCCCCCCCCC1=C(O)C(=O)C=C(O)C1=O [Embelin] (first compound 0.1 µM, partner dose 1.2 µM)",100,23.2,49,79,122,72.9,,54.7,
"COc1ccc(C2=N[C@@H](c3ccc(Cl)cc3)[C@@H](c3ccc(Cl)cc3)N2C(=O)N2CCNC(=O)C2)c(OC(C)C)c1 [Nutlin-3] + C[C@@H]1CCN(C(=O)CC#N)C[C@@H]1N(C)c1ncnc2[nH]ccc12 [CP690550] (first compound 0.1 µM, partner dose 1 µM)",87.6,8.63,38.3,62.9,90.3,111,104,16.4,46.9
"NC(=O)c1ccc(N(C(N)=O)c2c(F)cccc2F)nc1-c1ccc(F)cc1F + Oc1nc(-c2ccc(C(F)(F)F)cc2)nc2c1CSCC2 [XAV939] (first compound 0.4 µM, partner dose 2 µM)",235,91.5,83.7,73.3,45.1,327,,56.2,
"NC1(c2ccc(-c3nc4ccn5c(=O)[nH]nc5c4cc3-c3ccccc3)cc2)CCC1 + Cc1cc(N2CCOCC2)cc2[nH]c(-c3c(NC[C@@H](O)c4cccc(Cl)c4)cc[nH]c3=O)nc12 [BMS536924] (first compound 0.4 µM, partner dose 0.2 µM)",458,148,80.1,93.7,93.5,105,,208,180
"C[C@]1(O)C[C@@H](c2nc(-c3ccc4ccc(-c5ccccc5)nc4c3)c3c(N)nccn32)C1 + Cn1cc(/C=C2\C(=O)Nc3cccnc32)c2ccccc21 [GW441756] (first compound 0.4 µM, partner dose 0.4 µM)",129,155,154,112,43.9,39.8,,389,
"Cn1cnc2c(F)c(Nc3ccc(Br)cc3Cl)c(C(=O)NOCCO)cc21 [selumetinib] + OCCn1cc(-c2cnc3nnn(Cc4ccc5ncccc5c4)c3n2)cn1 [PF04217903] (first compound 0.015 µM, partner dose 1 µM)",98.9,77.1,53.8,96.5,111,62.4,,46.7,69
"CCCCCCCCc1ccc(CCC(N)(CO)CO)cc1 [fingolimod] + O=C(CCCCCCC(=O)Nc1ccccc1)NO [vorinostat] (first compound 2 µM, partner dose 0.08 µM)",64.1,171,180,71.8,86,85.2,,50.9,187
"Cn1sc(=O)n(Cc2ccccc2)c1=O + CN(NC(=O)CC(=O)NN(C)C(=S)c1ccccc1)C(=S)c1ccccc1 [STA4783] (first compound 0.4 µM, partner dose 0.006 µM)",125,53.4,104,97.4,94.5,258,241,337,146
"CCCCCCCCc1ccc(CCC(N)(CO)CO)cc1 [fingolimod] + O=c1cc(-c2cccc3c2Sc2ccccc2S3)oc(N2CCOCC2)c1 [KU55933] (first compound 2 µM, partner dose 1 µM)",58.8,101,55.6,57.9,92.1,149,,186,
"NC(=O)c1ccc(N(C(N)=O)c2c(F)cccc2F)nc1-c1ccc(F)cc1F + CCc1ccc(CCOc2ccc(CC3SC(=O)NC3=O)cc2)nc1 [pioglitazone] (first compound 0.4 µM, partner dose 2 µM)",131,51,126,46.7,44.4,124,,53.5,
"Cn1cnc2c(F)c(Nc3ccc(Br)cc3Cl)c(C(=O)NOCCO)cc21 [selumetinib] + Cc1cc([N+](=O)[O-])ccc1NS(=O)(=O)c1cc(Cl)ccc1Cl [FH535] (first compound 0.015 µM, partner dose 1 µM)",163,71.8,206,241,206,175,,102,
"CCCCCCCCc1ccc(CCC(N)(CO)CO)cc1 [fingolimod] + Cc1ccc(NC(=O)c2cccc(N(C)C)c2)cc1NC(=O)c1ccc(O)cc1 [ZM336372] (first compound 2 µM, partner dose 2 µM)",182,56.3,93.2,58,106,97.7,,156,191
"CCCCCCCCc1ccc(CCC(N)(CO)CO)cc1 [fingolimod] + CC(C)(C)c1cnc(CSc2cnc(NC(=O)C3CCNCC3)s2)o1 [SNS-032] (first compound 2 µM, partner dose 0.01 µM)",67.6,163,158,108,43.2,48,,344,68.1
"C[C@@H](N)c1ccc(C(=O)Nc2ccnc3[nH]ccc23)cc1 + Cc1ccc(NC(=O)c2cccc(N(C)C)c2)cc1NC(=O)c1ccc(O)cc1 [ZM336372] (first compound 0.4 µM, partner dose 2 µM)",147,56.8,58.6,82.2,209,106,99,120,88.4
"CCN(CC)CCNC(=O)c1c(C)[nH]c(/C=C2\C(=O)Nc3ccc(F)cc32)c1C [sunitinib] + O=C(O)c1ccc(-c2c[nH]c3ncc(-c4ccccc4)cc23)cc1C1CCCC1 [GSK650394] (first compound 0.4 µM, partner dose 0.16 µM)",77.9,70.3,91.5,75.2,32.3,51.2,95.2,60.3,139

# An excerpt of these results, with tabs.
SMILES	cleaved PARP positive nuclei fraction [1] [%]	cleaved PARP positive nuclei fraction [2] [%]	cleaved PARP positive nuclei fraction [3] [%]	cleaved PARP positive nuclei fraction [4] [%]	cleaved PARP positive nuclei fraction [5] [%]	cleaved PARP positive nuclei fraction [6] [%]	cleaved PARP positive nuclei fraction [7] [%]	cleaved PARP positive nuclei fraction [8] [%]	cleaved PARP positive nuclei fraction [9] [%]
CCCCCCCCc1ccc(CCC(N)(CO)CO)cc1 [fingolimod] + COc1ccc(COc2ccc(Cc3cnc(N)nc3N)cc2OC)cc1 [GW2580] (first compound 2 µM, partner dose 1 µM)	102	135	62	81.6	52.5	178		50.1	
CCN(CC)CCNC(=O)c1c(C)[nH]c(/C=C2\C(=O)Nc3ccc(F)cc32)c1C [sunitinib] + O=C(O)C(=O)Nc1sc2c(c1C(=O)O)CCNC2 [TCS401] (first compound 0.4 µM, partner dose 1.66667 µM)	99.6	183	56.3	127	48.1	61.3		171	
